Laboratory results published in patent publication US20250059232A1 (ENSOL BIOSCIENCES INC., priority 2021, published 2025).

Assay: peptide made by a vendor (Fmoc solid-phase peptide synthesis; H-Asp(OtBu)-2-ClTrt resin (0.63 to 0.67 mmol/g); Wang resin (0.55 mmol/g) for Comparative Example 1; HBTU (Comparative Example 1))
Details: whole synthesis

## Ac-QLHLD-OH
HPLC
  crude HPLC purity: 91.3% to 97.5%
  final HPLC purity: 99.6%
Deprotection peptide yield
  crude yield: 98.4%
